Results are given in words; binding and its absence hold for the method and conditions named. Binding seen in cells or lysates may run through a third protein. Some results given as binding are weak or reduced against the parent protein; the word gives no strength. Where a sequence is shown, tags or fusion partners need not be part of it.
T1: Cnd2-Pk (fission yeast) (Schizosaccharomyces pombe (fission yeast)) (UniProt Q9Y7R3)
T1 sequence: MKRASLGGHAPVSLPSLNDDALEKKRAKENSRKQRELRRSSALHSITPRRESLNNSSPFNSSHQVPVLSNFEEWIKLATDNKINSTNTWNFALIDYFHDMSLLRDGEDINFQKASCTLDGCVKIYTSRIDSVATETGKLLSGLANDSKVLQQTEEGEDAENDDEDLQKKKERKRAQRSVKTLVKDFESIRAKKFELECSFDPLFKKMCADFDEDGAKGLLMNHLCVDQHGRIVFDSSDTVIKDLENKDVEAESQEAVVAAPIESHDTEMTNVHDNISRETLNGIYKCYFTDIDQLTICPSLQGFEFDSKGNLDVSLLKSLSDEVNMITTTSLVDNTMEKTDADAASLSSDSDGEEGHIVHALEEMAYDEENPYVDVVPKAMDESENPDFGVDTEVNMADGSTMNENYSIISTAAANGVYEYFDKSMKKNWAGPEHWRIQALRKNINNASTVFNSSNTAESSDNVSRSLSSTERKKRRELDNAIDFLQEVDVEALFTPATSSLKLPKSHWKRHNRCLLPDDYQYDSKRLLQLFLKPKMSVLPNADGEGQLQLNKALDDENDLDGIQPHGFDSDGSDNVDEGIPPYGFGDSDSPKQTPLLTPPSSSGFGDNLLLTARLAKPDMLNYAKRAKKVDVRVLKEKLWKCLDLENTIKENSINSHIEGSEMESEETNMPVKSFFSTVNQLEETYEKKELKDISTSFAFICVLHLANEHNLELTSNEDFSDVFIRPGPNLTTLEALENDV


Molecular target: T1, Cnd2-Pk (fission yeast) (Schizosaccharomyces pombe (fission yeast))
Experiment: co-IP

Row | binding | Binder
1 | binds | Cnd1-Myc (wild type, expressed from its endogenous locus in fission yeast) (protein, UniProt O94679 1-1158) MSLDLLSRLKKYIHDEENSDLDSIYAECENAGLTAVVNDVIDTLLLGTSSCFDEDCLEKLFAICSHFADLSSSVRNKVYDLLTSNISSESAILEDMISANATDFTVPQTNLETTGIAFQLTVNSLSSSNQLSVIRSSTNTVKGRKKNPTTNSNWNGISHVNALLDAIITLFQKKLSRVWTTSSERDMFLSLFLKPIYTLMESEINIKNASFRSRLFNIIGLAVQFHNHTTAAETNIIQNLQYFEHLSEYAADLVHIVTVQFNSVTLAEGIIRTLCSLEFNDNDVKGPKQVALFLVRLSSLIPNLCLKQLTQLVKLLDSESYTLRCAIIEVLANVVIDQIHDEAQNEMSESVPATVQSLMDLLSERLLDISPYCRTKVLHVFIKIFDLPIKYPRKRQEIAELVIRCLQDRSSHVRRNAIKLFSKLLTTHPFSVMHNGLLTRNIWEKGLSIIEEQLNSLQPKQQEKVVDSELEVDENLLEDATMIQDDESHEGESHLENSLSEYVDSVPAEEIVKVNLTKRFYLEALQYIDIVEAGAKIISQLLFAKNKSEVIESMDFFVFCNSFGISSSKLYIKKMIHLIWVKGTSDEGNNIQNHVLSCYKTLFFEPPPNSGTNEAANYIARNLISLTYDASLAELTSLEQMLCILMKDGYFSHLVITKLWQVYSYQKKDISRTQRRGSIIVIGMLALGNTDVVMQGLDHLIQIGLGPPGLEDLVLARYTCIAIKRIGKDASGSSNINFPNSHTLCQKLCMLLLRPSFSEEWFGLEEQAIEAIYAVAKHPDELCTNIILLLTKQLFKPSNHENTTSNDDHAMDEDLDDSPEEETLKDEEEIGIRLAHLIFLVGHVAIKQLVYIEYCEAEFKRRKADAERLAVQNSNNPINGQETSEYDLITGTSEDDFSEAMTFIRERELLYGENSLLSRFAPLVVELCSNHKSHNNQSLLLAASLTLSKFMCLSNNFCMEHLPLLITILEKCDNPIIRNNLVIGLADLTVCFNHFIDEISEYLYRRLMDEESSVKKTCFMTLAFLILAGQIKVKGQLGIMARSLEDEDARISDLARMFFTDFAAKDNSVYNNFIDIFSVLSRSAEEQDEDDAKFKRIIRFLTSFIEKERHTKQLAERLAARLDRCKTQRQWDHVVYALSLLPHKADNIQKLIDDGYHE
2 | binds | Cnd1-K658E-Myc (mutant Cnd1-Myc in fission yeast) (protein, UniProt O94679 1-1158) MSLDLLSRLKKYIHDEENSDLDSIYAECENAGLTAVVNDVIDTLLLGTSSCFDEDCLEKLFAICSHFADLSSSVRNKVYDLLTSNISSESAILEDMISANATDFTVPQTNLETTGIAFQLTVNSLSSSNQLSVIRSSTNTVKGRKKNPTTNSNWNGISHVNALLDAIITLFQKKLSRVWTTSSERDMFLSLFLKPIYTLMESEINIKNASFRSRLFNIIGLAVQFHNHTTAAETNIIQNLQYFEHLSEYAADLVHIVTVQFNSVTLAEGIIRTLCSLEFNDNDVKGPKQVALFLVRLSSLIPNLCLKQLTQLVKLLDSESYTLRCAIIEVLANVVIDQIHDEAQNEMSESVPATVQSLMDLLSERLLDISPYCRTKVLHVFIKIFDLPIKYPRKRQEIAELVIRCLQDRSSHVRRNAIKLFSKLLTTHPFSVMHNGLLTRNIWEKGLSIIEEQLNSLQPKQQEKVVDSELEVDENLLEDATMIQDDESHEGESHLENSLSEYVDSVPAEEIVKVNLTKRFYLEALQYIDIVEAGAKIISQLLFAKNKSEVIESMDFFVFCNSFGISSSKLYIKKMIHLIWVKGTSDEGNNIQNHVLSCYKTLFFEPPPNSGTNEAANYIARNLISLTYDASLAELTSLEQMLCILMKDGYFSHLVITELWQVYSYQKKDISRTQRRGSIIVIGMLALGNTDVVMQGLDHLIQIGLGPPGLEDLVLARYTCIAIKRIGKDASGSSNINFPNSHTLCQKLCMLLLRPSFSEEWFGLEEQAIEAIYAVAKHPDELCTNIILLLTKQLFKPSNHENTTSNDDHAMDEDLDDSPEEETLKDEEEIGIRLAHLIFLVGHVAIKQLVYIEYCEAEFKRRKADAERLAVQNSNNPINGQETSEYDLITGTSEDDFSEAMTFIRERELLYGENSLLSRFAPLVVELCSNHKSHNNQSLLLAASLTLSKFMCLSNNFCMEHLPLLITILEKCDNPIIRNNLVIGLADLTVCFNHFIDEISEYLYRRLMDEESSVKKTCFMTLAFLILAGQIKVKGQLGIMARSLEDEDARISDLARMFFTDFAAKDNSVYNNFIDIFSVLSRSAEEQDEDDAKFKRIIRFLTSFIEKERHTKQLAERLAARLDRCKTQRQWDHVVYALSLLPHKADNIQKLIDDGYHE

Reference: article doi:10.1101/2024.06.26.600663
